Measured values as given in the supplement of paper PMC4604168 (melanoma cell lines).
The other results are listed elsewhere or left out. Repeats are few or missing, and single values can be far off.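 Cells were imaged in 1,536-well plates, and nuclei stained with an antibody against cleaved PARP were counted against all DNA-stained nuclei to give the apoptosis fraction. Screening doses were chosen to leave most cells alive, and resting and induced cleaved-PARP levels differ strongly between cell lines.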

Key:
Assay in all cases: cleaved PARP positive nuclei fraction relative to DMSO control; melanoma cells; higher = more apoptosis
Conditions in all cases: library dose: low library concentration; 72 h
501Mel = system: 501Mel
A101D = system: A101D
A2058 = system: A2058
A375 = system: A375
C32 = system: C32
CBRC008 = system: CBRC008 (line from a melanoma biopsy)
CBRC013 = system: CBRC013 (line from a melanoma biopsy)
CBRC014 = system: CBRC014 (line from a melanoma biopsy)
CBRC016 = system: CBRC016 (line from a melanoma biopsy)
CBRC017 = system: CBRC017 (line from a melanoma biopsy)
COLO792 = system: COLO792
COLO800 = system: COLO800
COLO829 = system: COLO829
G361 = system: G361
IPC-298 = system: IPC-298
IST-MEL1 = system: IST-MEL1
LB2518-MEL = system: LB2518-MEL
LOXIMVI = system: LOXIMVI
MEL-HO = system: MEL-HO

COc1cc([C@@H]2c3cc4c(cc3[C@@H](O[C@@H]3O[C@@H]5CO[C@@H](C)O[C@H]5[C@H](O)[C@H]3O)[C@H]3COC(=O)[C@H]23)OCO4)cc(OC)c1O [etoposide] + O=C(Nc1cccc(Cl)c1)Nc1ncc(CCNc2ncnc3ccsc23)s1 [SNS314] (first compound 0.02 µM, partner dose 0.0008 µM)
cleaved PARP positive nuclei fraction (501Mel): 380%
cleaved PARP positive nuclei fraction (A101D): 55.6%
cleaved PARP positive nuclei fraction (A2058): 94.3%
cleaved PARP positive nuclei fraction (A375): 45%
cleaved PARP positive nuclei fraction (C32): 152%
cleaved PARP positive nuclei fraction (CBRC008): 36.6%
cleaved PARP positive nuclei fraction (CBRC013): 58%
cleaved PARP positive nuclei fraction (CBRC014): 71.5%
cleaved PARP positive nuclei fraction (CBRC016): 154%
cleaved PARP positive nuclei fraction (CBRC017): 106%
cleaved PARP positive nuclei fraction (COLO792): 59.3%
cleaved PARP positive nuclei fraction (COLO800): 183%
cleaved PARP positive nuclei fraction (COLO829): 104%
cleaved PARP positive nuclei fraction (G361): 67.7%
cleaved PARP positive nuclei fraction (IPC-298): 197%
cleaved PARP positive nuclei fraction (IST-MEL1): 59.6%
cleaved PARP positive nuclei fraction (LB2518-MEL): 98.2%
cleaved PARP positive nuclei fraction (LOXIMVI): 130%
cleaved PARP positive nuclei fraction (MEL-HO): 74.2%

O=C(/C=C/c1cccnc1)NCCCCC1CCN(C(=O)c2ccccc2)CC1 + CN(C)S(=O)(=O)c1ccc2c(c1)/C(=C/c1cc3c([nH]1)CCCC3)C(=O)N2 [SU6656] (first compound 0.01 µM, partner dose 0.4 µM)
cleaved PARP positive nuclei fraction (501Mel): 97.3%
cleaved PARP positive nuclei fraction (A101D): 181%
cleaved PARP positive nuclei fraction (A2058): 180%
cleaved PARP positive nuclei fraction (A375): 28.5%
cleaved PARP positive nuclei fraction (C32): 57.1%
cleaved PARP positive nuclei fraction (CBRC008): 3100%
cleaved PARP positive nuclei fraction (CBRC013): 76.3%
cleaved PARP positive nuclei fraction (CBRC014): 92.3%
cleaved PARP positive nuclei fraction (CBRC016): 1400%
cleaved PARP positive nuclei fraction (CBRC017): 571%
cleaved PARP positive nuclei fraction (COLO792): 547%
cleaved PARP positive nuclei fraction (COLO800): 165%
cleaved PARP positive nuclei fraction (COLO829): 287%
cleaved PARP positive nuclei fraction (G361): 4410%
cleaved PARP positive nuclei fraction (IPC-298): 191%
cleaved PARP positive nuclei fraction (IST-MEL1): 52.1%
cleaved PARP positive nuclei fraction (LB2518-MEL): 134%
cleaved PARP positive nuclei fraction (LOXIMVI): 30%
cleaved PARP positive nuclei fraction (MEL-HO): 104%

O=c1[nH]nc(Sc2ncc([N+](=O)[O-])s2)n1-c1ccc2c(c1)OCCO2 + C[C@@H]1CCN(C(=O)CC#N)C[C@@H]1N(C)c1ncnc2[nH]ccc12 [CP690550] (first compound 0.2 µM, partner dose 1 µM)
cleaved PARP positive nuclei fraction (501Mel): 80.5%
cleaved PARP positive nuclei fraction (A101D): 82.3%
cleaved PARP positive nuclei fraction (A2058): 70.8%
cleaved PARP positive nuclei fraction (A375): 278%
cleaved PARP positive nuclei fraction (C32): 61%
cleaved PARP positive nuclei fraction (CBRC008): 33.2%
cleaved PARP positive nuclei fraction (CBRC013): 123%
cleaved PARP positive nuclei fraction (CBRC014): 85.3%
cleaved PARP positive nuclei fraction (CBRC016): 128%
cleaved PARP positive nuclei fraction (CBRC017): 116%
cleaved PARP positive nuclei fraction (COLO792): 61%
cleaved PARP positive nuclei fraction (COLO800): 67.4%
cleaved PARP positive nuclei fraction (COLO829): 41.2%
cleaved PARP positive nuclei fraction (G361): 75.1%
cleaved PARP positive nuclei fraction (IPC-298): 172%
cleaved PARP positive nuclei fraction (IST-MEL1): 51%
cleaved PARP positive nuclei fraction (LB2518-MEL): 148%
cleaved PARP positive nuclei fraction (LOXIMVI): 128%
cleaved PARP positive nuclei fraction (MEL-HO): 68.1%

Cc1ccc(Nc2nccc(N(C)c3ccc4c(C)n(C)nc4c3)n2)cc1S(N)(=O)=O [Pazopanib] + COc1cc2c(Oc3ccc4[nH]c(C)cc4c3F)ncnc2cc1OCCCN1CCCC1 [cediranib] (first compound 0.4 µM, partner dose 0.4 µM)
cleaved PARP positive nuclei fraction (501Mel): 93.3%
cleaved PARP positive nuclei fraction (A101D): 115%
cleaved PARP positive nuclei fraction (A2058): 117%
cleaved PARP positive nuclei fraction (A375): 63.2%
cleaved PARP positive nuclei fraction (C32): 76%
cleaved PARP positive nuclei fraction (CBRC008): 47.1%
cleaved PARP positive nuclei fraction (CBRC013): 93.3%
cleaved PARP positive nuclei fraction (CBRC014): 85.5%
cleaved PARP positive nuclei fraction (CBRC016): 127%
cleaved PARP positive nuclei fraction (CBRC017): 86.5%
cleaved PARP positive nuclei fraction (COLO792): 72.9%
cleaved PARP positive nuclei fraction (COLO800): 38.1%
cleaved PARP positive nuclei fraction (COLO829): 90.8%
cleaved PARP positive nuclei fraction (G361): 214%
cleaved PARP positive nuclei fraction (IPC-298): 57.8%
cleaved PARP positive nuclei fraction (IST-MEL1): 232%
cleaved PARP positive nuclei fraction (LB2518-MEL): 367%
cleaved PARP positive nuclei fraction (LOXIMVI): 55.5%
cleaved PARP positive nuclei fraction (MEL-HO): 45.3%

Cc1ccc(Nc2nccc(N(C)c3ccc4c(C)n(C)nc4c3)n2)cc1S(N)(=O)=O [Pazopanib] + OCCn1cc(-c2cnc3nnn(Cc4ccc5ncccc5c4)c3n2)cn1 [PF04217903] (first compound 0.4 µM, partner dose 1 µM)
cleaved PARP positive nuclei fraction (501Mel): 86.3%
cleaved PARP positive nuclei fraction (A101D): 42.1%
cleaved PARP positive nuclei fraction (A2058): 72.2%
cleaved PARP positive nuclei fraction (A375): 150%
cleaved PARP positive nuclei fraction (C32): 58.7%
cleaved PARP positive nuclei fraction (CBRC008): 61.3%
cleaved PARP positive nuclei fraction (CBRC013): 113%
cleaved PARP positive nuclei fraction (CBRC014): 73.4%
cleaved PARP positive nuclei fraction (CBRC016): 55.9%
cleaved PARP positive nuclei fraction (CBRC017): 85.5%
cleaved PARP positive nuclei fraction (COLO792): 111%
cleaved PARP positive nuclei fraction (COLO800): 61.7%
cleaved PARP positive nuclei fraction (COLO829): 61.9%
cleaved PARP positive nuclei fraction (G361): 92.6%
cleaved PARP positive nuclei fraction (IPC-298): 57.9%
cleaved PARP positive nuclei fraction (IST-MEL1): 60.1%
cleaved PARP positive nuclei fraction (LB2518-MEL): 225%
cleaved PARP positive nuclei fraction (LOXIMVI): 108%
cleaved PARP positive nuclei fraction (MEL-HO): 68%

COc1cc([C@@H]2c3cc4c(cc3[C@@H](O[C@@H]3O[C@@H]5CO[C@@H](C)O[C@H]5[C@H](O)[C@H]3O)[C@H]3COC(=O)[C@H]23)OCO4)cc(OC)c1O [etoposide] + Cc1cc(N2CCOCC2)cc2[nH]c(-c3c(NC[C@@H](O)c4cccc(Cl)c4)cc[nH]c3=O)nc12 [BMS536924] (first compound 0.02 µM, partner dose 0.2 µM)
cleaved PARP positive nuclei fraction (501Mel): 98.7%
cleaved PARP positive nuclei fraction (A101D): 73.9%
cleaved PARP positive nuclei fraction (A2058): 68.6%
cleaved PARP positive nuclei fraction (A375): 176%
cleaved PARP positive nuclei fraction (C32): 61.5%
cleaved PARP positive nuclei fraction (CBRC008): 264%
cleaved PARP positive nuclei fraction (CBRC013): 95.9%
cleaved PARP positive nuclei fraction (CBRC014): 87.6%
cleaved PARP positive nuclei fraction (CBRC016): 49.5%
cleaved PARP positive nuclei fraction (CBRC017): 99.3%
cleaved PARP positive nuclei fraction (COLO792): 62.3%
cleaved PARP positive nuclei fraction (COLO800): 51%
cleaved PARP positive nuclei fraction (COLO829): 59.6%
cleaved PARP positive nuclei fraction (G361): 120%
cleaved PARP positive nuclei fraction (IPC-298): 217%
cleaved PARP positive nuclei fraction (IST-MEL1): 193%
cleaved PARP positive nuclei fraction (LB2518-MEL): 223%
cleaved PARP positive nuclei fraction (LOXIMVI): 161%
cleaved PARP positive nuclei fraction (MEL-HO): 169%

Cc1ccc(Nc2nccc(N(C)c3ccc4c(C)n(C)nc4c3)n2)cc1S(N)(=O)=O [Pazopanib] + Cc1ccc(NC(=O)c2cccc(N(C)C)c2)cc1NC(=O)c1ccc(O)cc1 [ZM336372] (first compound 0.4 µM, partner dose 2 µM)
cleaved PARP positive nuclei fraction (501Mel): 416%
cleaved PARP positive nuclei fraction (A101D): 41.8%
cleaved PARP positive nuclei fraction (A2058): 94.2%
cleaved PARP positive nuclei fraction (A375): 143%
cleaved PARP positive nuclei fraction (C32): 75.8%
cleaved PARP positive nuclei fraction (CBRC008): 87.5%
cleaved PARP positive nuclei fraction (CBRC013): 75.6%
cleaved PARP positive nuclei fraction (CBRC014): 96.1%
cleaved PARP positive nuclei fraction (CBRC016): 83.4%
cleaved PARP positive nuclei fraction (CBRC017): 96.4%
cleaved PARP positive nuclei fraction (COLO792): 157%
cleaved PARP positive nuclei fraction (COLO800): 92.7%
cleaved PARP positive nuclei fraction (COLO829): 41.7%
cleaved PARP positive nuclei fraction (G361): 119%
cleaved PARP positive nuclei fraction (IPC-298): 117%
cleaved PARP positive nuclei fraction (IST-MEL1): 97.7%
cleaved PARP positive nuclei fraction (LB2518-MEL): 146%
cleaved PARP positive nuclei fraction (LOXIMVI): 20.6%
cleaved PARP positive nuclei fraction (MEL-HO): 66.7%

Cc1cn(-c2cc(NC(=O)c3ccc(C)c(Nc4nccc(-c5cccnc5)n4)c3)cc(C(F)(F)F)c2)cn1 [nilotinib] + OCCn1cc(-c2cnc3nnn(Cc4ccc5ncccc5c4)c3n2)cn1 [PF04217903] (first compound 0.2 µM, partner dose 1 µM)
cleaved PARP positive nuclei fraction (501Mel): 79.2%
cleaved PARP positive nuclei fraction (A101D): 124%
cleaved PARP positive nuclei fraction (A2058): 113%
cleaved PARP positive nuclei fraction (A375): 138%
cleaved PARP positive nuclei fraction (C32): 39.6%
cleaved PARP positive nuclei fraction (CBRC008): 125%
cleaved PARP positive nuclei fraction (CBRC013): 164%
cleaved PARP positive nuclei fraction (CBRC014): 77.9%
cleaved PARP positive nuclei fraction (CBRC016): 106%
cleaved PARP positive nuclei fraction (CBRC017): 91.6%
cleaved PARP positive nuclei fraction (COLO792): 87.6%
cleaved PARP positive nuclei fraction (COLO800): 94.7%
cleaved PARP positive nuclei fraction (COLO829): 151%
cleaved PARP positive nuclei fraction (G361): 74.5%
cleaved PARP positive nuclei fraction (IPC-298): 183%
cleaved PARP positive nuclei fraction (IST-MEL1): 21.1%
cleaved PARP positive nuclei fraction (LB2518-MEL): 66.7%
cleaved PARP positive nuclei fraction (LOXIMVI): 70.3%
cleaved PARP positive nuclei fraction (MEL-HO): 73.3%
